Reference: US20230312564A1, “AROMATIC RING-LACTAM COMPOUND, PREPARATION METHOD THEREFOR AND USE THEREOF” (SHANGHAI RINGENE BIOPHARMA CO., LTD., priority 2020, published 2023)
Some of these results come from one statement about several compounds together. At least one structure is not confirmed: it was looked up by name or label, or the drawing left a doubt.

By UniProt entry, the sequences of proteins in these tests, tags left out.
UniProt P33261, whole entry: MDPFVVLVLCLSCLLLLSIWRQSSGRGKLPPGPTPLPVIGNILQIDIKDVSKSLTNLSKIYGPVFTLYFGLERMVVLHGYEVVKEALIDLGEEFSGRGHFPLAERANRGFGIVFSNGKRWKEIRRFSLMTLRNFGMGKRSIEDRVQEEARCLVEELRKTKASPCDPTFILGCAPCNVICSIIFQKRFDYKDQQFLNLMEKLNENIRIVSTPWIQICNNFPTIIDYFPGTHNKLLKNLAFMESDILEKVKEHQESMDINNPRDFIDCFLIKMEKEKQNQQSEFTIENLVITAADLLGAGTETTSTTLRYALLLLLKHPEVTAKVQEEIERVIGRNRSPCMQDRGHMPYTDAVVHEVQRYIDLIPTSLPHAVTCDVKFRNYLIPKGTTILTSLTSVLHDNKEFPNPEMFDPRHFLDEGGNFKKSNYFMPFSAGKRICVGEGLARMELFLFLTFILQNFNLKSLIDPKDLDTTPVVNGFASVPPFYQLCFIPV
UniProt P08684, whole entry: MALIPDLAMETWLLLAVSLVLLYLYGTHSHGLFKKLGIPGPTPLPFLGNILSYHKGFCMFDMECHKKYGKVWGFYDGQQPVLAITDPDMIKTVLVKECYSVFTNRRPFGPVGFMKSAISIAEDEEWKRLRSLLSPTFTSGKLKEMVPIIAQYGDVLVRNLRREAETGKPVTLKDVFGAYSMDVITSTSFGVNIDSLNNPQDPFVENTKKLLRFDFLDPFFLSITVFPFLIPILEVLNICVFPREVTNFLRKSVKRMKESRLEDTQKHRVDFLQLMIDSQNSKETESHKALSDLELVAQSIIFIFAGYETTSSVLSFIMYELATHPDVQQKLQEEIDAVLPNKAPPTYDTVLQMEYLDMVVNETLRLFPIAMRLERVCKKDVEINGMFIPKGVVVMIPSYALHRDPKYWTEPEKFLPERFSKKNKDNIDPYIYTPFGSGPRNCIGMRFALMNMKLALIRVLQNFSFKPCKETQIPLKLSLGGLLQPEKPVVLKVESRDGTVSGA
UniProt P10635, whole entry: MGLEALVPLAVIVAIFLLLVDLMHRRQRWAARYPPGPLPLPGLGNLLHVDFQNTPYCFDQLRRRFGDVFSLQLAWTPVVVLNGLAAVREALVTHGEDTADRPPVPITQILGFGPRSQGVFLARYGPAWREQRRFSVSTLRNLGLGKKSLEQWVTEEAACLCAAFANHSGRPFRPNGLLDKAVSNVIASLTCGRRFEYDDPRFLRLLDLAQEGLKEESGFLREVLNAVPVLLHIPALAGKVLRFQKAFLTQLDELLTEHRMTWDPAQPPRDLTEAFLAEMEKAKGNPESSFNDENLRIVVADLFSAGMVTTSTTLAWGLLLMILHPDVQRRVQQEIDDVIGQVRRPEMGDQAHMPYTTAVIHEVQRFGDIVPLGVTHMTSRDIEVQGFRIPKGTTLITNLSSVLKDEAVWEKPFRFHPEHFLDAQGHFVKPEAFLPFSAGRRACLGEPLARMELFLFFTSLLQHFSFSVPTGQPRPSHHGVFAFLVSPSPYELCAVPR

Assays:
Assay type in all cases: in vitro ADME
CYP2C19 = target: T1, CYP2C19 (Homo sapiens, UniProt P33261); test: Direct inhibition test (DI test) in human liver microsomes, CYP2C19
T1 construct: A system containing 100 μL of human liver microsomes; from tissue; host or cells: human liver microsomes
Method: (§1) (2) Direct inhibition test (DI test): A system containing 100 μL of human liver microsomes (final concentration of 0.2 mg/mL) was subjected to a direct inhibition incubation, and the system contained NADPH (final concentration of 1 mM), 10 μM compound, positive inhibitor cocktail (10 μM ketoconazole, 10 μM quinidine, 100 μM sulfaphenazole, 10 μM α-naphthoflavone, 1,000 μM tranylcypromine), negative control (BPS of 0.1% DMSO), and mixed probe substrates (10 μM midazolam, 100 μM testosterone, 10 μM dextromethorphan, […], 100 μM phenacetin, 100 μM mephenytoin). After 20 minutes of incubation, the reaction was stopped. The relative activity of the enzyme was calculated by measuring the relative production of metabolites.

CYP3A4 = target: T2, CYP3A4 (Homo sapiens, UniProt P08684); test: Direct inhibition test (DI test) in human liver microsomes, CYP3A4
T2 construct: A system containing 100 μL of human liver microsomes; from tissue; host or cells: human liver microsomes
Method: as §1

CYP2D6 = target: T3, CYP2D6 (Homo sapiens, UniProt P10635); test: Direct inhibition test (DI test) in human liver microsomes, CYP2D6
T3 construct: A system containing 100 μL of human liver microsomes; from tissue; host or cells: human liver microsomes
Method: as §1

Measured: IC50

COc1cc(F)cc([C@@H](CO)NC(=O)[C@@H](C)N2Cc3ccc(-c4nc(NC5CCOCC5)ncc4Cl)c(F)c3C2=O)c1 [Embodiment 33]
> 10 µM: all assays above

Cc1cccc([C@@H](CO)NC(=O)[C@@H](C)N2Cc3ccc(-c4nc(NC5CCOCC5)ncc4F)c(F)c3C2=O)c1 [Embodiment 31]
> 10 µM: all assays above
